Measurements: publication PMC12757429
Like-named read-outs stand apart in the source and are kept apart here. Results are given in words; binding and its absence hold for the method and conditions named. In cells and extracts the contact can be indirect. A yes stands for co-enrichment or nearness to the bait. Other partners may have been found.

Amino acid sequences for entries named in this document (tags omitted).
UniProt O00487: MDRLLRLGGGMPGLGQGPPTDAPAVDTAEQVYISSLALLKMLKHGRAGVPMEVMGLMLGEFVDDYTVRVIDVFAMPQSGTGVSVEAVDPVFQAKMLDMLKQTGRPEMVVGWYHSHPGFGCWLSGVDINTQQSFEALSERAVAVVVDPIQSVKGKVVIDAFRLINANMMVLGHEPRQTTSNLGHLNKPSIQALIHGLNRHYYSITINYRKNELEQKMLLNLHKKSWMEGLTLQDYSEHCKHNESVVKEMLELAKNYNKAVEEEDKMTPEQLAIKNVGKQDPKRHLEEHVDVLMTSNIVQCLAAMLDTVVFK
UniProt O95347: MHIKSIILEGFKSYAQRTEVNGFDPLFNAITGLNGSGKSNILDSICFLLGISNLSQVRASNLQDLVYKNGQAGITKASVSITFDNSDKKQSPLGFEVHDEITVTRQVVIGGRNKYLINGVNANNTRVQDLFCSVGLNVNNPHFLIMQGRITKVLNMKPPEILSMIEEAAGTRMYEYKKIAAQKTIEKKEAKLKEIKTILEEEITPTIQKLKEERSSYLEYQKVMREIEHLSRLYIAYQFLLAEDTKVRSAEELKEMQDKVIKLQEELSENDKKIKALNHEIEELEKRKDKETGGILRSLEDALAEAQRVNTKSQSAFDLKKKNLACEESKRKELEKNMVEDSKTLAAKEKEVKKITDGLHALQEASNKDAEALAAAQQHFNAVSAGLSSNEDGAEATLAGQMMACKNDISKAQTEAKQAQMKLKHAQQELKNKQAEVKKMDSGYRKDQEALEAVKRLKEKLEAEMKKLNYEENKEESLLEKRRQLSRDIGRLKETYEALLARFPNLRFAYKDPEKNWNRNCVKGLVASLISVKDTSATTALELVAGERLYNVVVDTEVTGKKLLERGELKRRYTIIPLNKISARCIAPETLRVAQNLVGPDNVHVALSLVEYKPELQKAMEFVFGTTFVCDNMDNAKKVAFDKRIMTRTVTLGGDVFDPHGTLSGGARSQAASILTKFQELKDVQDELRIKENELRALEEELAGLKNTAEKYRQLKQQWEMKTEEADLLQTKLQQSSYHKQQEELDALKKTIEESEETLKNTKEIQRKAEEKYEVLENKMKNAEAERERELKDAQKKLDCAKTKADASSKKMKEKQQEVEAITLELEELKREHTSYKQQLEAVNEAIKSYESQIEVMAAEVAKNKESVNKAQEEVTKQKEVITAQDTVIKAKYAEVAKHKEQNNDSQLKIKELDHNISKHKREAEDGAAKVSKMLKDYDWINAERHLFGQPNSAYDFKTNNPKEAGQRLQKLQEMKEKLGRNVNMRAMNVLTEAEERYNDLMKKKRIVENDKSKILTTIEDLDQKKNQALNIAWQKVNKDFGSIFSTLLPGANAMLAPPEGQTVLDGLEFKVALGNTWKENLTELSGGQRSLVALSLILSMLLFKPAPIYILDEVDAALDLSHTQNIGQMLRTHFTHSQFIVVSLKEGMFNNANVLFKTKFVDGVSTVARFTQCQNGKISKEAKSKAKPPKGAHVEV
UniProt P14618: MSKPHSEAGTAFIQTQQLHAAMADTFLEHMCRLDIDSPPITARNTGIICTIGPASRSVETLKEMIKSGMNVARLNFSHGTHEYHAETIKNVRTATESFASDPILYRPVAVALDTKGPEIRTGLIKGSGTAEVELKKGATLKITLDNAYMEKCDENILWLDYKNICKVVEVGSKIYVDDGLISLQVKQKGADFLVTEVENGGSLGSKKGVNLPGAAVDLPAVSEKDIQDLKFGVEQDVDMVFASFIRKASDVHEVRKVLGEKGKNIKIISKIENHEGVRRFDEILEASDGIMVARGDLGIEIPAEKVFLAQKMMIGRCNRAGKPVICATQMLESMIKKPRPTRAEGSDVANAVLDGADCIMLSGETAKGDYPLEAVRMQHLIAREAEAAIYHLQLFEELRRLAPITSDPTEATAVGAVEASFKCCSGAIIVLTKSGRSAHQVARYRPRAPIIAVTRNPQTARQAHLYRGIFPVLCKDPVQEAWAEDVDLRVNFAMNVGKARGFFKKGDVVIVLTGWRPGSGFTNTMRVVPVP

Tests used:
[1] = target: PSMD14 (Proteasome 26S Subunit, Non-ATPase 14), overexpressed in H1299 cells (UniProt O00487); assay: affinity purification with mass spectrometry; cleared lysate of H1299 cells (overexpressing PSMD14) in NP-40 buffer with protease inhibitors and 20 uM MG-132; immunoprecipitated with anti-PSMD14 antibody (ab109130) on Protein A/G magnetic beads; SDS-PAGE, in-gel tryptic digestion, LC-MS/MS
[2] = target: PSMD14 (Proteasome 26S Subunit, Non-ATPase 14), overexpressed in H1299 cells (UniProt O00487); assay: as above; remark: listed apart in the source

Row | binding [1] | binding [2] | Molecule
1 | binds |  | SMC2 (from UniProt O95347 1-1197)
2 | binds |  | PKM (from UniProt P14618 1-531)
3 |  | binds | Hyaluronan-mediated motility receptor (HMMR) (protein, UniProt O75330 1-724) MSFPKAPLKRFNDPSGCAPSPGAYDVKTLEVLKGPVSFQKSQRFKQQKESKQNLNVDKDTTLPASARKVKSSESKESQKNDKDLKILEKEIRVLLQERGAQDRRIQDLETELEKMEARLNAALREKTSLSANNATLEKQLIELTRTNELLKSKFSENGNQKNLRILSLELMKLRNKRETKMRGMMAKQEGMEMKLQVTQRSLEESQGKIAQLEGKLVSIEKEKIDEKSETEKLLEYIEEISCASDQVEKYKLDIAQLEENLKEKNDEILSLKQSLEENIVILSKQVEDLNVKCQLLEKEKEDHVNRNREHNENLNAEMQNLKQKFILEQQEREKLQQKELQIDSLLQQEKELSSSLHQKLCSFQEEMVKEKNLFEEELKQTLDELDKLQQKEEQAERLVKQLEEEAKSRAEELKLLEEKLKGKEAELEKSSAAHTQATLLLQEKYDSMVQSLEDVTAQFESYKALTASEIEDLKLENSSLQEKAAKAGKNAEDVQHQILATESSNQEYVRMLLDLQTKSALKETEIKEITVSFLQKITDLQNQLKQQEEDFRKQLEDEEGRKAEKENTTAELTEEINKWRLLYEELYNKTKPFQLQLDAFEVEKQALLNEHGAAQEQLNKIRDSYAKLLGHQNLKQKIKHVVKLKDENSQLKSEVSKLRCQLAKKKQSETKLQEELNKVLGIKHFDPSKAFHHESKENFALKTPLKEGNTNCYRAPMECQESWK
